Results published in publication PMC9925730, “Controlled sequential in situ self-assembly and disassembly of a fluorogenic cisplatin prodrug for cancer theranostics” (Nature Communications, 2023).

Tests used:
[1] = GSH-triggered reduction, disassembly of Pt^IVNPs and CDDP release in solution (HPLC, DLS, TEM, ICP-OES); conditions: Supplementary Fig 9 c
Protocol: To evaluate the ALP-triggered dephosphorylation and in situ self-assembly process, a solution of P-CyPt (10 μM) in Tris buffer (1 mL) was incubated with ALP (100 U/L) at 37 °C. HPLC, DLS, and TEM analyses were performed at 0, 5, 10, 15, 20, and 30 min. To evaluate the GSH-triggered reduction and disassembly process, P-CyPt (10 μM) in Tris buffer (1 mL) was first incubated with ALP (100 U/L) at 37 °C for 30 min to allow the formation of Pt^IVNPs. The solution was then treated with 10 mM GSH at 37 °C, which was monitored by HPLC, DLS, and TEM at 10, 20, 30, 40, 50, and 60 min.
(a) 5 mM GSH 10 mM GSH(b ) (c)
60 min 60 min CyPt Cy- CO O H
Time (min) Time (min) Time (min)
Supplementary Figure 9. HPLC traces of the time-dependent conversion of PtIVNPs (CyPt) into Cy-COOH under incubation with 5 mM (a) or 10 mM GSH (b) in Tris buffer. (c) The conversion curves of PtIVNPs (CyPt) into Cy-COOH under incubation with 5 mM (red) or 10 mM GSH (black) in Tris buffer. P-CyPt (10 μM) was incubated with ALP (100 U/L, 37 °C) in Tris buffer for 30 min to allow complete dephosphorylation and in situ self-assembly into PtIVNPs. Then, GSH at a concentration of 5 mM or 10 mM was added and incubated for another 0, 10, 20, 30, 40, 50, and 60 min. The amounts of CyPt and Cy-COOH at each time point were quantified by HPLC.
Date are mean ± s.d. (n = 3 independent experiments). […]
Release of CDDP from PtIVNPs during disassembly process. P-CyPt (10 μM) in 5 mL Tris buffer was incubated with ALP (100 U/L) at 37 °C for 30 min to form PtIVNPs, followed by addition with 10 mM GSH at 37 °C. After 10, 20, 30, 40, 50 and 60 min, 50 mM N-ethylmaleimide was added into the solution to scavenge GSH. The reaction solution was centrifuged at 13,000 × g and the supernatant was collected. The supernatants were digested with concentrated HNO3 (65~70%) and HCl (36~38%) at 90 °C for 24 h. The solution was diluted to 5 mL 2% HNO3 and 5% HCl solution, and the concentration of Pt element was measured by ICP-OES, which was further applied to calculate the amount of CDDP (denoted as NPt) released in the solution. The percentage of Pt release at each time point was calculated according to the formula:
Pt release % = NPt/N0 × 100% (9)
Where N0 represents the total amount of Pt in the in situ formed PtIVNPs, and NPt represents the amount of Pt released from PtIVNPs following incubation with GSH.
Characterization of enzyme kinetics of P-CyPt towards ALP. Briefly, varying concentrations of P-CyPt (0.5, 1.0, 2.0, 3.0, 4.0, and 5.0 μM) in 100 μL Tris buffer were placed in a 96-well black plate. The reactions were initiated upon addition of 100 μL ALP (30 U/L) to each solution. The resulting fluorescence intensities in each well in the first five minutes were recorded on a Spark™ 10M Multimode Microplate Reader (λex/em = 680/710 nm). The amount of CyPt at each time point was determined by a standard curve under the same conditions. Kinetics values, including Km and Vmax, were determined according to the Lineweaver-Burk plot.
Determination of the sensitivity of P-CyPt towards ALP. To evaluate the sensitivity of P-CyPt towards ALP, P-CyPt (10 μM) was incubated with varying concentrations of […]
30 min, and the fluorescence spectra were then recorded on a HORIBA Jobin Yvon Fluoromax-4 fluorometer, with an excitation at 680 nm. The resulting fluorescence intensities at 710 nm were plotted to the con centrations of ALP, and a linear regression fitted from 0 -20 U/L ALP was obtained, affording the slope k. The detection limit was calculated from 3σ/k, where σ represents the standard deviation of 11 blank […]
Determination of the specificity towards ALP. The specificity towards ALP in vitro was evaluated based on fluorescence, respectively. P-CyPt (10 μM) in Tris buffer was incubated with 10 nmol/L of MMP-2, 100 U/L of γ-glutamyl transferase (GGT), 100 U/L Cathepsin B (CTB), 0.2 μg/mL of Caspase-3/7, 2.5 mg/mL of Trypsin, 100 U/L of ALP or 100 U/L ALP pretreated with its inhibitors, Na 3VO4 (100 μM) for 10 min. The […]

[2] = tested on: s.c. HeLa tumors; experiment: Fluorescence imaging of varying sizes of s.c. HeLa tumors; format: in vivo, mice
Protocol: page 21: Supplementary Figure 29. Fluorescence imaging of varying sizes of s.c. HeLa tumors in mice. (a) Representative fluorescence images of mice with s.c. HeLa tumors at a mean size of 3.8 ± 0.8, 22.1 ± 1.6, 46.4 ± 4.2, 75.9 ± 4.5 and 125.5 ± 12.7 mm3, respectively. […]) was i.v. injected into mice, and the whole-body fluorescence images were acquired at 0 and 4 h. Red arrows indicate the locations of tumors, and the black circle indicates the position chosen for the background in each mouse. (b) Calculated SBR in mice of different tumor sizes. […] Data denote mean ± s.d. (n = 3 independent animals). […] 21 (1 picture or pasted object on this page, not shown here)

With CC1(C)C(/C=C/C2=C3Oc4cc(O)c(Cl)cc4C=C3CCC2)=[N+](CCCNC(=O)[C@@H](Cc2ccccc2)NC(=O)[C@@H](Cc2ccccc2)NC(=O)CCC(=O)[O][Pt]([NH2])([NH2])([OH])([Cl])[Cl])c2ccccc21 [CyPt] the “CyPt (%), mean” value ([1]; 5 mM GSH, 0min) was 100%, the “CyPt (%), mean” value ([1]; 5 mM GSH, 10 min) was 76.7055% and the “CyPt (%), mean” value ([1]; 5 mM GSH, 20 min) was 54.753%. For the same molecule, the “CyPt (%), mean” value ([1]; 5 mM GSH, 30 min) was 42.9173%, the “CyPt (%), mean” value ([1]; 5 mM GSH, 40 min) was 28.9716% and the “CyPt (%), mean” value ([1]; 5 mM GSH, 50 min) was 13.7577%. For the same molecule, the “CyPt (%), mean” value ([1]; 5 mM GSH, 60 min) was 1.569%, the “CyPt (%), mean” value ([1]; 10 mM GSH, 0min) was 100.00% and the “CyPt (%), mean” value ([1]; 10 mM GSH, 10 min) was 82.67%. The “CyPt (%), mean” value ([1]; 10 mM GSH, 20 min) was 59.68%, the “CyPt (%), mean” value ([1]; 10 mM GSH, 30 min) was 38.50% and the “CyPt (%), mean” value ([1]; 10 mM GSH, 40 min) was 22.16%. The “CyPt (%), mean” value ([1]; 10 mM GSH, 50 min) was 9.16% and the “CyPt (%), mean” value ([1]; 10 mM GSH, 60 min) was 0.00%.

In the case of CC1(C)C(/C=C/C2=C3Oc4cc(OP(=O)(O)O)c(Cl)cc4C=C3CCC2)=[N+](CCCNC(=O)[C@@H](Cc2ccccc2)NC(=O)[C@@H](Cc2ccccc2)NC(=O)CCC(=O)[O][Pt]([NH2])([NH2])([OH])([Cl])[Cl])c2ccccc21 [P-CyPt], the “FL intensity of tumor (Supplementary Fig.29 (c))” value (shortened to “FL intensity of tumor”) ([2]; 1st size group (mean tumor size 3.763 mm3), individual mice) is reported as 4.65E+08 and 4.03E+08 and 4.44E+08, the “FL intensity of tumor” value ([2]; 1st size group (mean tumor size 3.763 mm3), mean of 3 mice) is reported as 4.37E+08 and the “FL intensity of tumor” value ([2]; 2nd size group (mean tumor size 22.090 mm3), individual mice) is reported as 5.42E+08 and 5.79E+08 and 6.19E+08. For the same molecule, the “FL intensity of tumor” value ([2]; 2nd size group (mean tumor size 22.090 mm3), mean of 3 mice) was 5.80E+08, the “FL intensity of tumor” value ([2]; 3rd size group (mean tumor size 46.413 mm3), individual mice) was 7.28E+08 and 7.16E+08 and 7.94E+08 and the “FL intensity of tumor” value ([2]; 3rd size group (mean tumor size 46.413 mm3), mean of 3 mice) was 7.46E+08. The “FL intensity of tumor” value ([2]; 4th size group (mean tumor size 75.889 mm3), individual mice) was 8.91E+08 and 9.02E+08 and 8.21E+08, the “FL intensity of tumor” value ([2]; 4th size group (mean tumor size 75.889 mm3), mean of 3 mice) was 8.72E+08 and the “FL intensity of tumor” value ([2]; 5th size group (mean tumor size 125.544 mm3), individual mice) was 8.74E+08 and 9.61E+08 and 8.79E+08. For the same molecule, the “FL intensity of tumor” value ([2]; 5th size group (mean tumor size 125.544 mm3), mean of 3 mice) was 9.05E+08.

Several values for one entry are separate records, joined by “and”; a condition that tells them apart may be missing. Equal values may be shown once.
